Laboratory results: the supplement of paper PMC10849652
The list shows a part of the results.

Amino acid sequences for entries named in this document (tags omitted). A change or cut given only in a name is not applied to a line headed by its entry.
UniProt P25098: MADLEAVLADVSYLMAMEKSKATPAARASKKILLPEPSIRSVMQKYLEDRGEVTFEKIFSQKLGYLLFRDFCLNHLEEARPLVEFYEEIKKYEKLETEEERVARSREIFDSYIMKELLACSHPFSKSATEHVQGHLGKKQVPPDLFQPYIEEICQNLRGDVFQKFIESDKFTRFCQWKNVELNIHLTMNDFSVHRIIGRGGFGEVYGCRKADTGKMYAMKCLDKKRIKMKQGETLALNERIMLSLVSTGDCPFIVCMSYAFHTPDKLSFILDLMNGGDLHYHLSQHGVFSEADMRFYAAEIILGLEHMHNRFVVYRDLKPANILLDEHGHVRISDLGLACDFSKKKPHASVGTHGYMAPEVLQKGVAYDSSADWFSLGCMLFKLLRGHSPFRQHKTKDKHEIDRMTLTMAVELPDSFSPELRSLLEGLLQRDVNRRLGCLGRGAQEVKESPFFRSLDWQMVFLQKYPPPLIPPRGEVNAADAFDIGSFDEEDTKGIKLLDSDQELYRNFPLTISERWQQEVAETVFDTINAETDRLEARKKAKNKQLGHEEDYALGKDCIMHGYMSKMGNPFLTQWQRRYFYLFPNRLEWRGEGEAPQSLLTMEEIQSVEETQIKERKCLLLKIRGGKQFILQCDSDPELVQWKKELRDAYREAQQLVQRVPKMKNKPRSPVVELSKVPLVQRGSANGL
UniProt Q9HC44: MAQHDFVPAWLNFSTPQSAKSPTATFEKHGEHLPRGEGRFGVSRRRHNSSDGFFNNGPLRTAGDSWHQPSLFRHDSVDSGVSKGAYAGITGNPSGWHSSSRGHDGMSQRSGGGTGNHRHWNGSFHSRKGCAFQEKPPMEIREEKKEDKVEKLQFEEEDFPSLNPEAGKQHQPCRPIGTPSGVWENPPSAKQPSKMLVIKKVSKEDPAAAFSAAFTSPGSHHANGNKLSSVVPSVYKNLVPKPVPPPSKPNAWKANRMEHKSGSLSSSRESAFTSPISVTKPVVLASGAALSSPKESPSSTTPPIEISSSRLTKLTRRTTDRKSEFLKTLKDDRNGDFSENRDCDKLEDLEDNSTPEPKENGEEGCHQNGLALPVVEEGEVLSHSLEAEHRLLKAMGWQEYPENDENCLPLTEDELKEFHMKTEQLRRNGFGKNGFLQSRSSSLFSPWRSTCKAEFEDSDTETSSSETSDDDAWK
UniProt Q9HAV0, whole entry, looked up: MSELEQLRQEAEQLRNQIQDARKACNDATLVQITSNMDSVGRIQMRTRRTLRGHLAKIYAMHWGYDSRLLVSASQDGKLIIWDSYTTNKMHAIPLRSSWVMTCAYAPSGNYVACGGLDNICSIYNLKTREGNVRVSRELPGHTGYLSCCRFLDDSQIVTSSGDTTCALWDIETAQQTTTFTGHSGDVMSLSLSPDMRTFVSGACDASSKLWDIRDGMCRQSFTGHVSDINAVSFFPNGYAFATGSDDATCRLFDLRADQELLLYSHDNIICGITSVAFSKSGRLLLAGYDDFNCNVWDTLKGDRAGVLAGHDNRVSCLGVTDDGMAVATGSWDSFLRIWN
UniProt Q9Y5P6: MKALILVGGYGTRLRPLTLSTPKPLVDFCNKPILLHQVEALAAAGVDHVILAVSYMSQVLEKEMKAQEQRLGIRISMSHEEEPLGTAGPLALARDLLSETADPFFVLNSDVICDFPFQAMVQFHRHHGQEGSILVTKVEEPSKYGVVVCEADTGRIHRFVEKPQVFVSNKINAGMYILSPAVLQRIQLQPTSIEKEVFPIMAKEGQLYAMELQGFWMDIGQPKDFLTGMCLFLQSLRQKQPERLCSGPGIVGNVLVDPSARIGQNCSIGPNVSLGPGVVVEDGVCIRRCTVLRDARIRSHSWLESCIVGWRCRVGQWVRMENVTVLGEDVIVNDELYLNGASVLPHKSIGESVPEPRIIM
UniProt Q12849: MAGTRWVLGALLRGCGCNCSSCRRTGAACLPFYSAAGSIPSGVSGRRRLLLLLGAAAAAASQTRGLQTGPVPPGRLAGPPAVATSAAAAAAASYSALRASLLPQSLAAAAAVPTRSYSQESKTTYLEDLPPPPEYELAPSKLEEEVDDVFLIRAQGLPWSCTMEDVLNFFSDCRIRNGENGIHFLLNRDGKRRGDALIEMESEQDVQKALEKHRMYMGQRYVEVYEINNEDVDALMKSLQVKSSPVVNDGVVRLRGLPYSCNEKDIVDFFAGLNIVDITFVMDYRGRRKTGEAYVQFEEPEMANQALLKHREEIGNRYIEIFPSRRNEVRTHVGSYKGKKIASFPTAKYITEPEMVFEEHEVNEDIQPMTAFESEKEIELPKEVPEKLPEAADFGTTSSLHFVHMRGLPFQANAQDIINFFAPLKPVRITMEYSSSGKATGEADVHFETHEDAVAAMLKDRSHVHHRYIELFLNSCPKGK
UniProt Q2TAP0: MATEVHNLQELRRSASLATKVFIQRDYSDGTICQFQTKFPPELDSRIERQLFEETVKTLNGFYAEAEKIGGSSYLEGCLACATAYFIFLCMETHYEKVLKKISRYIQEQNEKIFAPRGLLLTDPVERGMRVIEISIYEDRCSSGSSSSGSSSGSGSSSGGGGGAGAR
UniProt Q9BRT9, whole entry, looked up: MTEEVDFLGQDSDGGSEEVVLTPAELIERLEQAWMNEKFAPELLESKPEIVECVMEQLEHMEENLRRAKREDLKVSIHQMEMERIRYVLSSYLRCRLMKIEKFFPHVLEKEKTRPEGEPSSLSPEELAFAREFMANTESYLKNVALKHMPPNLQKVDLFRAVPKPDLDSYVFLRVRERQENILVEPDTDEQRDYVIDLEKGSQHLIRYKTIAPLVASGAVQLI
UniProt P00505: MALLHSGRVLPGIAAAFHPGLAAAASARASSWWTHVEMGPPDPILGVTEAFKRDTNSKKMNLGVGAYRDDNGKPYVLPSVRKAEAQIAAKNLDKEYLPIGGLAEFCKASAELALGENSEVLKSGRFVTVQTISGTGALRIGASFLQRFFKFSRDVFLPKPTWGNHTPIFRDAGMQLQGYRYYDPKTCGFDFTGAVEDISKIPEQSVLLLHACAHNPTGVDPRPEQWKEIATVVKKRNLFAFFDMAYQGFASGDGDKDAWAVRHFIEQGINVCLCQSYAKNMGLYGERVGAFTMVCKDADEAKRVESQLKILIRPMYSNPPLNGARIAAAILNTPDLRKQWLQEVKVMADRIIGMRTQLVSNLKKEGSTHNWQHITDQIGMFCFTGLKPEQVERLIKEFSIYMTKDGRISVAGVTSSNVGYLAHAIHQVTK
UniProt Q9UBQ7: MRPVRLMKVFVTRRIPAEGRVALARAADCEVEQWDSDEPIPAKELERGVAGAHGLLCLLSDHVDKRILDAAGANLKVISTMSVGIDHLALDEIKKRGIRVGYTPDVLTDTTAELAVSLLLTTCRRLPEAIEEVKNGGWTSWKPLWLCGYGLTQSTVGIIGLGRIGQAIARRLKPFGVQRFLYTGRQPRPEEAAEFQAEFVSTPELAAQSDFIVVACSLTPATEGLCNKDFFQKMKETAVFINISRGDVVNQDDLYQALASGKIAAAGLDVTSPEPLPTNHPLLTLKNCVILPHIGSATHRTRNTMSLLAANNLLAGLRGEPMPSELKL
UniProt Q8TBA6: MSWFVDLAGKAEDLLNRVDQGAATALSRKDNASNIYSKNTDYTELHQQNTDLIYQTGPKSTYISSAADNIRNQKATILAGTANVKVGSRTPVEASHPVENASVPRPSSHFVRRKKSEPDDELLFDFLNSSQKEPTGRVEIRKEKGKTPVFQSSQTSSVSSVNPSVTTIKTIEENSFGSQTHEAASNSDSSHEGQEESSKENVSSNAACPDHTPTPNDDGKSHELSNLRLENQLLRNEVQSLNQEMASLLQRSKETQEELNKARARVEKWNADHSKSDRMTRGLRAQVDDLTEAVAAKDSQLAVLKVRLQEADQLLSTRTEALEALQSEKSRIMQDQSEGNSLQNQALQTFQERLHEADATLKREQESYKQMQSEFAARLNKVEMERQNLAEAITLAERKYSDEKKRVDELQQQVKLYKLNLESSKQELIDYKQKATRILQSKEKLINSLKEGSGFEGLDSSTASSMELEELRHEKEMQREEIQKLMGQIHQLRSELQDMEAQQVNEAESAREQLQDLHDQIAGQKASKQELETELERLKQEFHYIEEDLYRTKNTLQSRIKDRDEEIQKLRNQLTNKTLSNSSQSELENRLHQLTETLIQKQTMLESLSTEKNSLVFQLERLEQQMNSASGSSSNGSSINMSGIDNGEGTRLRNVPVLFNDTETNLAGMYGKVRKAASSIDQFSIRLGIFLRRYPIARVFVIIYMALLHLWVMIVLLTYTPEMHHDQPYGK
UniProt P43304: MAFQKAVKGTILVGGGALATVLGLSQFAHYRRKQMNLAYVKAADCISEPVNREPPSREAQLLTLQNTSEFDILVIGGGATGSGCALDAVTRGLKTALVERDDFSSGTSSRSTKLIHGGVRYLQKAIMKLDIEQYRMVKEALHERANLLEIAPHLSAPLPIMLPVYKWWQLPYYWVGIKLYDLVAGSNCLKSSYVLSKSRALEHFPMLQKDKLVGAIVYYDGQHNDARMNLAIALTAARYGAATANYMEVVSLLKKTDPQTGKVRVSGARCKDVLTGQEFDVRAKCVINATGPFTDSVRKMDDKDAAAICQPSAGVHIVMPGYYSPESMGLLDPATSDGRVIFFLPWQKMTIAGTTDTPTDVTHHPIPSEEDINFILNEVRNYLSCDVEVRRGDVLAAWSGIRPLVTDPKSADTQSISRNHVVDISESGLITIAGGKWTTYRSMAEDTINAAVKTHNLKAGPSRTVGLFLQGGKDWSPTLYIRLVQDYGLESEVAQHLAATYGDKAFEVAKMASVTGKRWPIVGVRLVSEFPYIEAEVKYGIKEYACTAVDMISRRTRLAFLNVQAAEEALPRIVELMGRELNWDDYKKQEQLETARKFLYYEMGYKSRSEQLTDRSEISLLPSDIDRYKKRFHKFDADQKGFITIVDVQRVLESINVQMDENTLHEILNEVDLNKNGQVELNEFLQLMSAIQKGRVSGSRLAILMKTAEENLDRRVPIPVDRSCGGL
UniProt Q96EK6: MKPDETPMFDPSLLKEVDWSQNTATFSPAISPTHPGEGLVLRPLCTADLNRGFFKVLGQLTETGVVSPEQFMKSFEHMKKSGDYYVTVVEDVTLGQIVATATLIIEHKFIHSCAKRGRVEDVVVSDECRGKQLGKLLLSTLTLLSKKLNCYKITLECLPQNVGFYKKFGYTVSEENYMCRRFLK
UniProt Q7Z2K8: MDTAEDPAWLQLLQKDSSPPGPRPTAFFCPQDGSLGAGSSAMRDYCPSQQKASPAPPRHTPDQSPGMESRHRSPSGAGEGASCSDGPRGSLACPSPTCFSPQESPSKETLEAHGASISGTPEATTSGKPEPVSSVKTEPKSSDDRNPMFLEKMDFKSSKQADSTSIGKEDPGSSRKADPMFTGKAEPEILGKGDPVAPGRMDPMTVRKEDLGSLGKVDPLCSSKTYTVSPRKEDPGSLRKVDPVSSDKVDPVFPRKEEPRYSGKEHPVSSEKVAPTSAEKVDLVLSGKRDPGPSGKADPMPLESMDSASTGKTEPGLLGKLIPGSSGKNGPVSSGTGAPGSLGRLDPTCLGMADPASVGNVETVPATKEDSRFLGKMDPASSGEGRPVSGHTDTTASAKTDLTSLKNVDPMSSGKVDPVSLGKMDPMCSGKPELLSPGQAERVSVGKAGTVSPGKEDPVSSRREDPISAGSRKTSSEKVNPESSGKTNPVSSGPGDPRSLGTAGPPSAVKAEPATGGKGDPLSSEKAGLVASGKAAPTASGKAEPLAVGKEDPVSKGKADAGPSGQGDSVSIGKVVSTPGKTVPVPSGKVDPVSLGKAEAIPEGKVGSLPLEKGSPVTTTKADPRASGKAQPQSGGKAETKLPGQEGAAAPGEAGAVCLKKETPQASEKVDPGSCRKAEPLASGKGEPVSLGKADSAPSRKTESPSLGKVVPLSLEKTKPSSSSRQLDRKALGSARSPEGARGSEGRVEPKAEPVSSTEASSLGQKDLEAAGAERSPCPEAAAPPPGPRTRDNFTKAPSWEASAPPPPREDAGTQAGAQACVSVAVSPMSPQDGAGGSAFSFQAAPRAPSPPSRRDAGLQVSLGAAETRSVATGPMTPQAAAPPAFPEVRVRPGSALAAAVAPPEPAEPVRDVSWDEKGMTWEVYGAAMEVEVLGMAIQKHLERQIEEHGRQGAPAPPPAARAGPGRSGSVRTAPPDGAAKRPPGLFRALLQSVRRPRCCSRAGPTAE
UniProt Q8IXQ4: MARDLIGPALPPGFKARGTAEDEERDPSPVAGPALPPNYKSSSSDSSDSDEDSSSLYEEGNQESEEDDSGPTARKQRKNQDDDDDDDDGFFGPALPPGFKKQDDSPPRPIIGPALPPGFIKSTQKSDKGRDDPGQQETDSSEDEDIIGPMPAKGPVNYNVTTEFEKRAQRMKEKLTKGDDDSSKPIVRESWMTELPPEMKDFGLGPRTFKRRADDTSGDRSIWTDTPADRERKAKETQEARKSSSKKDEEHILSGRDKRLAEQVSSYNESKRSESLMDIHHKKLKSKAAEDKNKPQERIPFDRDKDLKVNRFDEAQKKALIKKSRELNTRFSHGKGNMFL

Legend:
Test in all cases: log2 fold change, soluble protein after heating vs DMSO (PISA); higher = thermal stabilisation; K562 cells, 10 uM, 30 min; active = over 0.2 and 3.5 SD of the protein, either way, in both replicates (recomputed)
saracatinib = compound: CN1CCN(CCOc2cc(OC3CCOCC3)c3c(Nc4c(Cl)ccc5c4OCO5)ncnc3c2)CC1 [saracatinib]
Procedure, shortened: (§1)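 For each measurement, 10 μM compound was applied for 30 min to K562 cells at 2×10^6 cells/mL. Aliquots were heated for 3 min across 48°C-58°C, pooled, and extracted in PBS with 0.5% NP-40 at 4°C; the supernatant after 21,000xg for 90 min was soluble protein. This was quantified by TMTpro 16plex LC-MS/MS with channel sums equalised, and thermal stability was reported relative to control samples from duplicates, on a log2 fold-change scale.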

sotrastaurin = compound: CN1CCN(c2nc(C3=C(c4c[nH]c5ccccc45)C(=O)NC3=O)c3ccccc3n2)CC1 [sotrastaurin]
Procedure, shortened: as §1

alvocidib = compound: CN1CC[C@H](c2c(O)cc(O)c3c(=O)cc(-c4ccccc4Cl)oc23)[C@H](O)C1 [alvocidib]
Procedure, shortened: as §1

Tubastatin A = compound: CN1CCc2c(c3ccccc3n2Cc2ccc(C(=O)NO)cc2)C1 [Tubastatin A]
Procedure, shortened: as §1

[1] = compound: CNC(=O)C1=CC=CC=C1NC2=NC(=NC=C2Cl)NC3=C(C=C(C=C3)N4CCOCC4)OC
Procedure, shortened: as §1

defactinib = compound: CNC(=O)c1ccc(Nc2ncc(C(F)(F)F)c(NCc3nccnc3N(C)S(C)(=O)=O)n2)cc1 [defactinib]
Procedure, shortened: as §1

rucaparib = compound: CNCc1ccc(-c2[nH]c3cc(F)cc4c3c2CCNC4=O)cc1 [rucaparib]
Procedure, shortened: as §1

[2] = compound: CNc1nc(-c2ccc3c(N)n[nH]c3c2)cc(N2C[C@@H](C(=O)NC3CCCCC3)CC[C@H]2C)n1
Procedure, shortened: as §1

encorafenib = compound: COC(=O)N[C@@H](C)CNc1nccc(-c2cn(C(C)C)nc2-c2cc(Cl)cc(NS(C)(=O)=O)c2F)n1 [encorafenib]
Procedure, shortened: as §1

[3] = compound: COC(=O)[C@H](CCSC)NC(=O)C1=C(C=C(C=C1)NC[C@H](CS)N)C2=CC=CC=C2
Procedure, shortened: as §1

[4] = compound: COC1=CC=C(C=C1)CN2C=CC3=C2C=C(C=C3)C(=O)NO
Procedure, shortened: as §1

filanesib = compound: CON(C)C(=O)N1N=C(c2cc(F)ccc2F)S[C@@]1(CCCN)c1ccccc1 [filanesib]
Procedure, shortened: as §1

zotarolimus = compound: CO[C@H]1C[C@@H]2CC[C@@H](C)[C@@](O)(O2)C(=O)C(=O)N2CCCC[C@H]2C(=O)O[C@H]([C@H](C)C[C@@H]2CC[C@H](n3cnnn3)[C@H](OC)C2)CC(=O)[C@H](C)/C=C(\C)[C@@H](O)[C@@H](OC)C(=O)[C@H](C)C[C@H](C)/C=C/C=C/C=C/1C [zotarolimus]
Procedure, shortened: as §1

idasanutlin = compound: COc1cc(C(=O)O)ccc1NC(=O)[C@@H]1N[C@@H](CC(C)(C)C)[C@](C#N)(c2ccc(Cl)cc2F)[C@H]1c1cccc(Cl)c1F [idasanutlin]
Procedure, shortened: as §1

alisertib = compound: COc1cc(Nc2ncc3c(n2)-c2ccc(Cl)cc2C(c2c(F)cccc2OC)=NC3)ccc1C(=O)O [alisertib]
Procedure, shortened: as §1

[5] = compound: COc1cc2nc(-c3cc(F)ccc3O)nc(N[C@@H]3CNC[C@H]3C(C)(C)O)c2cc1OC
Procedure, shortened: as §1

gefitinib = compound: COc1cc2ncnc(Nc3ccc(F)c(Cl)c3)c2cc1OCCCN1CCOCC1 [gefitinib]
Procedure, shortened: as §1

[6] = compound: COc1cccc2cc(-c3nc([C@H]4CC[C@H](C(=O)O)CC4)n4ncnc(N)c34)[nH]c12
Procedure, shortened: as §1

lapatinib = compound: CS(=O)(=O)CCNCc1ccc(-c2ccc3ncnc(Nc4ccc(OCc5cccc(F)c5)c(Cl)c4)c3c2)o1 [lapatinib]
Procedure, shortened: as §1

pictilisib = compound: CS(=O)(=O)N1CCN(Cc2cc3nc(-c4cccc5[nH]ncc45)nc(N4CCOCC4)c3s2)CC1 [pictilisib]
Procedure, shortened: as §1

Measured: log2 fold change

GRK2 (UniProt P25098)
inactive: saracatinib 0.007 | sotrastaurin -0.022 | alvocidib -0.043 | Tubastatin A -0.008 | [1] -0.056 | defactinib -0.051 | rucaparib 0 | [2] -0.007 | encorafenib 0.012 | [3] 0.016 | [4] 0.019 | filanesib -0.02 | zotarolimus 0.01 | idasanutlin -0.041 | alisertib -0.086 | [5] 0.048 | gefitinib 0 | [6] 0.034 | lapatinib -0.011 | pictilisib 0.017

GPBP1L1 (UniProt Q9HC44)
inactive: saracatinib 0.013 | sotrastaurin -0.04 | alvocidib 0.025 | Tubastatin A 0.006 | [1] 0.022 | defactinib -0.028 | rucaparib -0.02 | [2] 0.008 | encorafenib -0.033 | [3] 0.04 | [4] -0.014 | filanesib 0.007 | zotarolimus 0.034 | idasanutlin 0.019 | alisertib 0.041 | [5] -0.012 | gefitinib -0.036 | [6] 0.08 | lapatinib 0.05 | pictilisib -0.038

GNB4 (UniProt Q9HAV0)
inactive: saracatinib 0.048 | sotrastaurin -0.044 | alvocidib 0.082 | Tubastatin A 0.055 | [1] 0.03 | defactinib 0.038 | rucaparib -0.048 | [2] -0.031 | encorafenib -0.043 | [3] -0.028 | [4] -0.082 | filanesib 0.135 | zotarolimus -0.013 | idasanutlin 0.08 | alisertib -0.103 | [5] 0.072 | gefitinib 0.033 | [6] 0.067 | lapatinib 0.041 | pictilisib -0.002

GMPPB isoform 2 (UniProt Q9Y5P6)
inactive: saracatinib 0 | sotrastaurin -0.016 | alvocidib -0.023 | Tubastatin A -0.021 | [1] -0.05 | defactinib -0.009 | rucaparib -0.079 | [2] 0.023 | encorafenib 0.012 | [3] -0.028 | [4] 0.016 | filanesib -0.126 | zotarolimus 0.008 | idasanutlin -0.065 | alisertib 0.097 | [5] 0.009 | gefitinib 0.02 | [6] 0.103 | lapatinib 0 | pictilisib -0.057

GRSF1 (UniProt Q12849)
inactive: saracatinib -0.106 | sotrastaurin -0.182 | alvocidib -0.045 | Tubastatin A 0.156 | [1] -0.09 | defactinib 0.003 | rucaparib 0.312 | [2] 0.051 | encorafenib 0.12 | [3] 0.021 | [4] 0 | filanesib -0.11 | zotarolimus 0.086 | idasanutlin 0.28 | alisertib 0.057 | [5] -0.194 | gefitinib -0.049 | [6] -0.014 | lapatinib 0.052 | pictilisib -0.06

GOLGA7B (UniProt Q2TAP0)
inactive: saracatinib -0.034 | sotrastaurin -0.118 | alvocidib -0.061 | Tubastatin A -0.034 | [1] 0.101 | defactinib 0.038 | rucaparib -0.073 | [2] 0.023 | encorafenib -0.027 | [3] -0.051 | [4] -0.069 | filanesib 0.147 | zotarolimus -0.147 | idasanutlin -0.077 | alisertib -0.031 | [5] -0.038 | gefitinib 0.05 | [6] -0.046 | lapatinib -0.066

GINS4 (UniProt Q9BRT9)
inactive: saracatinib -0.021 | sotrastaurin -0.094 | alvocidib -0.063 | Tubastatin A 0.049 | [1] -0.072 | defactinib -0.047 | rucaparib -0.004 | [2] 0.016 | encorafenib -0.03 | [3] -0.041 | [4] 0.032 | filanesib -0.065 | zotarolimus 0.014 | idasanutlin -0.015 | alisertib -0.037 | [5] 0.058 | gefitinib 0 | [6] 0.004 | lapatinib -0.032 | pictilisib -0.061

GOT2 (UniProt P00505)
inactive: saracatinib 0.035 | sotrastaurin 0.042 | alvocidib -0.026 | Tubastatin A -0.01 | [1] 0.023 | defactinib -0.007 | rucaparib -0.033 | [2] -0.01 | encorafenib -0.014 | [3] 0.041 | [4] 0 | filanesib -0.044 | zotarolimus 0.003 | idasanutlin -0.007 | alisertib -0.066 | [5] 0.037 | gefitinib 0.021 | [6] 0.013 | lapatinib -0.03 | pictilisib -0.01

GRHPR (UniProt Q9UBQ7)
inactive: saracatinib 0.03 | sotrastaurin 0.046 | alvocidib -0.059 | Tubastatin A 0.004 | [1] -0.028 | defactinib -0.049 | rucaparib -0.019 | [2] -0.021 | encorafenib -0.05 | [3] -0.048 | [4] -0.029 | filanesib -0.032 | zotarolimus 0.026 | idasanutlin -0.091 | alisertib -0.067 | [5] 0.055 | gefitinib 0.006 | [6] 0.08 | lapatinib -0.037 | pictilisib 0.14

GOLGA5 (UniProt Q8TBA6)
inactive: saracatinib 0.015 | sotrastaurin 0.048 | alvocidib 0.018 | Tubastatin A -0.017 | [1] 0.06 | defactinib -0.094 | rucaparib 0.01 | [2] -0.098 | encorafenib -0.036 | [3] 0.01 | [4] 0 | filanesib 0.01 | zotarolimus -0.014 | idasanutlin -0.026 | alisertib 0.047 | [5] 0.036 | gefitinib 0.03 | [6] 0.035 | lapatinib 0.001 | pictilisib 0.028

GORASP2 isoform 3 (UniProt Q9H8Y8)
inactive: saracatinib -0.022 | sotrastaurin -0.162 | alvocidib -0.089 | Tubastatin A 0.005 | [1] 0.056 | defactinib -0.103 | rucaparib 0.065 | [2] 0.072 | encorafenib 0.108 | [3] -0.1 | [4] -0.035 | filanesib 0.093 | zotarolimus 0.001 | idasanutlin -0.112 | alisertib 0.041 | [5] 0.057 | gefitinib 0.007 | [6] -0.025 | lapatinib -0.089 | pictilisib 0.017

GPD2 (UniProt P43304)
inactive: saracatinib 0.041 | sotrastaurin 0.057 | alvocidib 0.002 | Tubastatin A -0.014 | [1] 0 | defactinib 0 | rucaparib 0.002 | [2] -0.06 | encorafenib -0.02 | [3] 0.043 | [4] -0.026 | filanesib 0.008 | zotarolimus -0.03 | idasanutlin -0.011 | alisertib -0.095 | [5] -0.004 | gefitinib 0.004 | [6] 0.04 | lapatinib -0.024 | pictilisib 0.008

GNPNAT1 (UniProt Q96EK6)
inactive: saracatinib 0.036 | sotrastaurin 0.052 | alvocidib -0.033 | Tubastatin A -0.019 | [1] -0.044 | defactinib -0.05 | rucaparib -0.023 | [2] -0.014 | encorafenib -0.001 | [3] 0.051 | [4] -0.016 | filanesib -0.009 | zotarolimus -0.023 | idasanutlin -0.043 | alisertib -0.052 | [5] 0.017 | gefitinib -0.051 | [6] 0.074 | lapatinib -0.031 | pictilisib -0.017

Fetched one by one from the entries so far, 2 records:
GRHPR (UniProt Q9UBQ7)
inactive: saracatinib 0.03 | sotrastaurin 0.046 | alvocidib -0.059 | Tubastatin A 0.004 | [1] -0.028 | defactinib -0.049 | rucaparib -0.019 | [2] -0.021 | encorafenib -0.05 | [3] -0.048 | [4] -0.029 | filanesib -0.032 | zotarolimus 0.026 | idasanutlin -0.091 | alisertib -0.067 | [5] 0.055 | gefitinib 0.006 | [6] 0.08 | lapatinib -0.037 | pictilisib 0.14

GRK2 (UniProt P25098)
inactive: saracatinib 0.007 | sotrastaurin -0.022 | alvocidib -0.043 | Tubastatin A -0.008 | [1] -0.056 | defactinib -0.051 | rucaparib 0 | [2] -0.007 | encorafenib 0.012 | [3] 0.016 | [4] 0.019 | filanesib -0.02 | zotarolimus 0.01 | idasanutlin -0.041 | alisertib -0.086 | [5] 0.048 | gefitinib 0 | [6] 0.034 | lapatinib -0.011 | pictilisib 0.017

(continued)

GRWD1 (UniProt Q9BQ67)
inactive: saracatinib -0.155 | sotrastaurin -0.039 | alvocidib 0.19 | Tubastatin A 0.09 | [1] -0.018 | defactinib 0.131 | rucaparib 0.283 | [2] 0.136 | encorafenib 0.109 | [3] -0.012 | [4] -0.054 | filanesib 0.337 | zotarolimus 0.046 | idasanutlin 0.21 | alisertib -0.113 | [5] -0.049 | gefitinib 0.089 | [6] -0.16 | lapatinib 0.096 | pictilisib -0.018

GPRIN1 (UniProt Q7Z2K8)
inactive: saracatinib 0 | sotrastaurin 0.003 | alvocidib 0.02 | Tubastatin A -0.009 | [1] -0.037 | defactinib -0.029 | rucaparib -0.01 | [2] 0.035 | encorafenib -0.018 | [3] 0.019 | [4] -0.03 | filanesib 0.07 | zotarolimus -0.053 | idasanutlin 0.025 | alisertib -0.02 | [5] 0.127 | gefitinib 0.074 | [6] 0.087 | lapatinib -0.013 | pictilisib 0.052

GPALPP1 (UniProt Q8IXQ4)
inactive: saracatinib 0.004 | sotrastaurin 0.004 | alvocidib 0.032 | Tubastatin A 0.015 | [1] -0.062 | defactinib 0.084 | rucaparib -0.007 | [2] -0.026 | encorafenib -0.033 | [3] 0.067 | [4] -0.064 | filanesib 0.017 | zotarolimus -0.012 | idasanutlin -0.029 | alisertib 0 | [5] 0.061 | gefitinib -0.01 | [6] 0.044 | lapatinib 0.018 | pictilisib 0.005
